Measurements taken from article PMC5342555, “ATAD2 is an epigenetic reader of newly synthesized histone marks during DNA replication” (Oncotarget, 2016).
Results are given in words; binding and its absence hold for the method and conditions named. Binding seen in cells or lysates may run through a third protein. Some entries that bind do so weakly or less than the wild type. Tags and fused reporters may be left off the sequences shown.

Sequences of proteins named here, by UniProt entry; tags and fusion partners are left off.
UniProt P45973: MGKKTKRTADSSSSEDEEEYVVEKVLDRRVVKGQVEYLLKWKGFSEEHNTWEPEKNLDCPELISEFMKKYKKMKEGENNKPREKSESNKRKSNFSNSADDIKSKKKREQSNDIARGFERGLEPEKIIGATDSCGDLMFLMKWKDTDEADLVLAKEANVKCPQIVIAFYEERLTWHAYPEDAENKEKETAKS

Molecular target: Heterochromatin Protein (HP) 1α, endogenous (human (endogenous in MCF7)) (UniProt P45973)
Assay: co-IP; HP1α associated complex isolated from nuclear extract of MCF7 cells expressing tagGFP-ATAD2 WT with 2 μg HP1α antibodies on Protein G beads; Western blot

B1: tagGFP-tagged WT ATAD2 (protein, UniProt Q6PL18 1-1390)
chain: MVVLRSSLELHNHSAASATGSLDLSSDFLSLEHIGRRRLRSAGAAQKKPAATTAKAGDGSSVKEVETYHRTRALRSLRKDAQNSSDSSFEKNVEITEQLANGRHFTRQLARQQADKKKEEHREDKVIPVTRSLRARNIVQSTEHLHEDNGDVEVRRSCRIRSRYSGVNQSMLFDKLITNTAEAVLQKMDDMKKMRRQRMRELEDLGVFNETEESNLNMYTRGKQKDIQRTDEETTDNQEGSVESSEEGEDQEHEDDGEDEDDEDDDDDDDDDDDDDDEDDEDEEDGEEENQKRYYLRQRKATVYYQAPLEKPRHQRKPNIFYSGPASPARPRYRLSSAGPRSPYCKRMNRRRHAIHSSDSTSSSSSEDEQHFERRRKRSRNRAINRCLPLNFRKDELKGIYKDRMKIGASLADVDPMQLDSSVRFDSVGGLSNHIAALKEMVVFPLLYPEVFEKFKIQPPRGCLFYGPPGTGKTLVARALANECSQGDKRVAFFMRKGADCLSKWVGESERQLRLLFDQAYQMRPSIIFFDEIDGLAPVRSSRQDQIHSSIVSTLLALMDGLDSRGEIVVIGATNRLDSIDPALRRPGRFDREFLFSLPDKEARKEILKIHTRDWNPKPLDTFLEELAENCVGYCGADIKSICAEAALCALRRRYPQIYTTSEKLQLDLSSINISAKDFEVAMQKMIPASQRAVTSPGQALSTVVKPLLQNTVDKILEALQRVFPHAEFRTNKTLDSDISCPLLESDLAYSDDDVPSVYENGLSQKSSHKAKDNFNFLHLNRNACYQPMSFRPRILIVGEPGFGQGSHLAPAVIHALEKFTVYTLDIPVLFGVSTTSPEETCAQVIREAKRTAPSIVYVPHIHVWWEIVGPTLKATFTTLLQNIPSFAPVLLLATSDKPHSALPEEVQELFIRDYGEIFNVQLPDKEERTKFFEDLILKQAAKPPISKKKAVLQALEVLPVAPPPEPRSLTAEEVKRLEEQEEDTFRELRIFLRNVTHRLAIDKRFRVFTKPVDPDEVPDYVTVIKQPMDLSSVISKIDLHKYLTVKDYLRDIDLICSNALEYNPDRDPGDRLIRHRACALRDTAYAIIKEELDEDFEQLCEEIQESRKKRGCSSSKYAPSYYHVMPKQNSTLVGDKRSDPEQNEKLKTPSTPVACSTPAQLKRKIRKKSNWYLGTIKKRRKISQAKDDSQNAIDHKIESDTEETQDTSVDHNETGNTGESSVEENEKQQNASESKLELRNNSNTCNIENELEDSRKTTACTELRDKIACNGDASSSQIIHISDENEGKEMCVLRMTRARRSQVEQQQLITVEKALAILSQPTPSLVVDHERLKNLLKTVVKKSQNYNIFQLENLYAVISQCIYRHRKDHDKTSLIQKMEQEVENFSCSR
In the case of B1, the binding is reported as “binds”.
